Laboratory results reported in US11103549B2, “Use of histone methyltransferase inhibitors and histone deacetylase inhibitors for therapy of Phelan-McDermid Syndrome” (Asddr, LLC, priority 2016, dated 2021).
At least one compound was matched to its structure with a doubt left.

Test system: Shank3+/ΔC mice
Test: Three-chamber social interaction assay in Shank3+/ΔC mice
Assay type: in vivo
Details: clozapine 5 mg/kg, i.p. once daily for 3 days

SMILES: CN1CCN(C2=Nc3cc(Cl)ccc3Nc3ccccc32)CC1 [clozapine]
- rescue of social deficits: ineffective
